In patent publication US20060040885A1, “Bioprosthetic heart valves” (Mayo Foundation for Medical Education and Research, a …, priority 1999, published 2006):
At least one compound was matched to its structure with a doubt left.

What was measured:
[1] = tested on: endothelial nitric oxide synthase (eNOS); assay: Western blot for eNOS polypeptide in valvular cells; format: cell-based, pigs; settings: 100 nM pravastatin, 24 hours, versus serum-free media alone
[2] = tested on: valvular cells (primary explant cultures from porcine cardiac aortic valves); assay: Thymidine uptake assay of cellular proliferation, LDL with or without pravastatin; format: cell-based, pigs; settings: LDL 10 μg/mL plus pravastatin 100 nM, 18 hours

CC[C@H](C)C(=O)O[C@H]1C[C@H](O)C=C2C=C[C@H](C)[C@H](CC[C@@H](O)C[C@@H](O)CC(=O)O)[C@H]21 [Pravastatin, pravastatin] was tested, and the “eNOS polypeptide (Western blot)” value [1] was “substantially more eNOS polypeptide” and the “proliferation compared to LDL alone (tritiated thymidine uptake)” value [2] was “substantially less proliferation”.
